These results are taken from patent CN108047333A.

Protein sequences, listed by entry. Tags and fused reporters are not part of them. Residues count along the entry.
UniProt P20138, residues 18-259: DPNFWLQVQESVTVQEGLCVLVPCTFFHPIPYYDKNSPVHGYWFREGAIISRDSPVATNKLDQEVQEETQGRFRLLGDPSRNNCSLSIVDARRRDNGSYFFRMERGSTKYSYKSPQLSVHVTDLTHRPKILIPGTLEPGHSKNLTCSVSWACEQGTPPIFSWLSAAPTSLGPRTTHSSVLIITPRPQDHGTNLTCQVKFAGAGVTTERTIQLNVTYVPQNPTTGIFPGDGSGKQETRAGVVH

For this assay, the target named is CD33蛋白 (CD33 protein) (UniProt P20138). Briefly: SPR. (In SPR one partner is held on a chip, and binding of the other changes the refractive index at the surface.)

These are yes or no findings as the source states them, for the method shown. Some results given as binding are weak or reduced against the parent protein; the word gives no strength.

B1: 单链抗体3-3 (anti-CD33 scFv) (scFv)
scFv: EVQLLESGGGLVQPGGSLRLSCAASGFTFSSYAMSWVRQAPGKGLEWVSTIRTGARTIYADSVKGRFTISRDNSKNTLYLQMNSLRAEDTAVYYCAKTKDPFDYWGQGTLVTVSSGGGGSGGGGSGGGGSTDIQMTQSPSSLSASVGDRVTITCRASQSISSYLNWYQQKPGKAPKLLYSASTLQSGVPSRFSGSGSGTDFTLTISSLQPEDFATYYCQQRTAWPYTFGQGTKVEIKR
Take B1: the binding entry is “binds”.
